We go through six molecules from PMC3179520.

Sequences of proteins named here, by UniProt entry; tags and fusion partners are left off.
UniProt O35973: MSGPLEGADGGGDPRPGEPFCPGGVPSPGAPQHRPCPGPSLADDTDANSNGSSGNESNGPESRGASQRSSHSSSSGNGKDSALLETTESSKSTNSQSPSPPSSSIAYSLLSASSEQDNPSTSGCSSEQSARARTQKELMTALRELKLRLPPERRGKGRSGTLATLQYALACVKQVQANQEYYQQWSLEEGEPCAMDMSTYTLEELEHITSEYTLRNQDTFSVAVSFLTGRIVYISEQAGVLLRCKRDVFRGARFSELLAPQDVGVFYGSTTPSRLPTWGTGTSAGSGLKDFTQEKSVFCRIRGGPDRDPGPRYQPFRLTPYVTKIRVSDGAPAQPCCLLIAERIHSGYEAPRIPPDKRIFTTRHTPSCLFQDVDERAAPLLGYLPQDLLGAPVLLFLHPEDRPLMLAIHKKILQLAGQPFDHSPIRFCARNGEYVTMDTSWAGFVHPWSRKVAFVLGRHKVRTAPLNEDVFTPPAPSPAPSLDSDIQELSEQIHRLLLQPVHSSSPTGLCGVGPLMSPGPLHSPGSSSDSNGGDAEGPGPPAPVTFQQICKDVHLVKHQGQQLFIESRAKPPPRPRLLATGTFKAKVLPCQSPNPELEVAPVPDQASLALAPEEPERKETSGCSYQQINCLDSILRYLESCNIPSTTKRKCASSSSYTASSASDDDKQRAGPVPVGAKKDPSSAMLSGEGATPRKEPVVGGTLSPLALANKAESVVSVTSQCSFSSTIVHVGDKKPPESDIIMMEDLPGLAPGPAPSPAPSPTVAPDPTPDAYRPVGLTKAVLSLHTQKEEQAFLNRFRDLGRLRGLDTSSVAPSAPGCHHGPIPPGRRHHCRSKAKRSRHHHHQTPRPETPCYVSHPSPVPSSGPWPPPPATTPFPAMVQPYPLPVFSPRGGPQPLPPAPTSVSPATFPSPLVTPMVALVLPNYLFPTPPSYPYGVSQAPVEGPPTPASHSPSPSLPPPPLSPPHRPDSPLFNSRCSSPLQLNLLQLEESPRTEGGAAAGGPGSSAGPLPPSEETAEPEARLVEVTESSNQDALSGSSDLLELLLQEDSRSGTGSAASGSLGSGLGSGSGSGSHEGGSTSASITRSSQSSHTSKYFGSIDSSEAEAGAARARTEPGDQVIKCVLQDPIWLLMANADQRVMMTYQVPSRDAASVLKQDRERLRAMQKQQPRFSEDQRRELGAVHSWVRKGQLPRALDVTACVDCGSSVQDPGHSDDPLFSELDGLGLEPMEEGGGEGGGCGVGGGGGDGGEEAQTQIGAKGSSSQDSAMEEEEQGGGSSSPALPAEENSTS
UniProt Q9WTL8: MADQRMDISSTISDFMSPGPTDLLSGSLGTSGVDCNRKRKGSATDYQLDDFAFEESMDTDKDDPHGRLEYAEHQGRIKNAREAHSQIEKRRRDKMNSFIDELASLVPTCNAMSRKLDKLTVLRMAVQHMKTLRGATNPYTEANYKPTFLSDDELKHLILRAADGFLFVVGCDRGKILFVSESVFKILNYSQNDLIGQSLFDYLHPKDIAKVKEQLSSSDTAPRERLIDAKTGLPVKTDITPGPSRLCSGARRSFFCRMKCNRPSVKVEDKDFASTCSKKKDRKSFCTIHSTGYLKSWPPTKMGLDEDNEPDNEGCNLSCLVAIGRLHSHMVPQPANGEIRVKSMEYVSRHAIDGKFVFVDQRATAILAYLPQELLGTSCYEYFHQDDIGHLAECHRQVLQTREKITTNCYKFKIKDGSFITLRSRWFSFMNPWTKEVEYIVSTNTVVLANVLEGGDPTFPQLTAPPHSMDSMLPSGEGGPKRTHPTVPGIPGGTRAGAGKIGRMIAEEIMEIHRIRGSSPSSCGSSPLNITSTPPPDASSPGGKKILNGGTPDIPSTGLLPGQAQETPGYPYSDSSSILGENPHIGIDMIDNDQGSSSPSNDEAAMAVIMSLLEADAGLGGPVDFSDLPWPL
UniProt Q9JMK2: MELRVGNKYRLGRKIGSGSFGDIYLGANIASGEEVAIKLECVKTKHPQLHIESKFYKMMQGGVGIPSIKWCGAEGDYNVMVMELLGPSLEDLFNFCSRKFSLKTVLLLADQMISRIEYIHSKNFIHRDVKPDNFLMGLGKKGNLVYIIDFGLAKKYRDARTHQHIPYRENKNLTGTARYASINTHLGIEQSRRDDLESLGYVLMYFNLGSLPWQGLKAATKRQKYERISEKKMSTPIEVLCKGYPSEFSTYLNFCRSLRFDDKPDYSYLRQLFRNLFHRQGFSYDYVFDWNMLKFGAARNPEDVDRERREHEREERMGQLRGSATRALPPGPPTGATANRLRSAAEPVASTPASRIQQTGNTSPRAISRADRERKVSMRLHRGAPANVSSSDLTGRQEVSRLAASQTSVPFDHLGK

These are yes or no findings as the source states them, for the method shown. In cells and extracts the contact can be indirect. Some binding calls cover weakened binding; strength is not graded here. For some assays here: Sequences can lack the tags named with a protein.

The target in assay [1] is PER1 (mouse (endogenous in SCN)) (UniProt O35973). Put plainly: co-IP; endogenous proteins of micro-dissected, pooled SCN extracts (N = 15) of WT C57BL/6 mice at ZT12; protein A beads conjugated with rabbit antibodies against BMAL1, USP2, ubiquitin, PER1, CRY1, CK1ε or EGFR; lysis buffer 75 mM Hepes pH 7.4, 150 mM KCl, 0.05% NP-40; overnight at 4°C; western blot with other antibodies.

The target in assay [2] is T1, USP2b (Ubiquitin Specific Protease 2, 45-kDa isoform) (mouse (endogenous in SCN)) (UniProt O88623).
T1 sequence: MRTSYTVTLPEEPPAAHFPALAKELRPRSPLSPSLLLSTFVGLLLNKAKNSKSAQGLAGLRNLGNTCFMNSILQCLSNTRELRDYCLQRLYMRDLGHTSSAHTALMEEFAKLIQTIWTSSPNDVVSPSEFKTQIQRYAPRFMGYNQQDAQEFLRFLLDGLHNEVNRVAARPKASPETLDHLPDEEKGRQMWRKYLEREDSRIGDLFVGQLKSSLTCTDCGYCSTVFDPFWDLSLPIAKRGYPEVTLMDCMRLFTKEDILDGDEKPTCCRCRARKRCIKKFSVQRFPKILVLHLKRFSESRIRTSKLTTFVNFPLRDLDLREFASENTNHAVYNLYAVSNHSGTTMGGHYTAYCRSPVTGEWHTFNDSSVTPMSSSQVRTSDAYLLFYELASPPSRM
Described as above.

Assay [3] deals with BMAL1 (mouse (endogenous in SCN)) (UniProt Q9WTL8). The description is as above.
In a further assay the target is T2, FLAG-USP2b (mouse) (UniProt O88623).
T2 sequence: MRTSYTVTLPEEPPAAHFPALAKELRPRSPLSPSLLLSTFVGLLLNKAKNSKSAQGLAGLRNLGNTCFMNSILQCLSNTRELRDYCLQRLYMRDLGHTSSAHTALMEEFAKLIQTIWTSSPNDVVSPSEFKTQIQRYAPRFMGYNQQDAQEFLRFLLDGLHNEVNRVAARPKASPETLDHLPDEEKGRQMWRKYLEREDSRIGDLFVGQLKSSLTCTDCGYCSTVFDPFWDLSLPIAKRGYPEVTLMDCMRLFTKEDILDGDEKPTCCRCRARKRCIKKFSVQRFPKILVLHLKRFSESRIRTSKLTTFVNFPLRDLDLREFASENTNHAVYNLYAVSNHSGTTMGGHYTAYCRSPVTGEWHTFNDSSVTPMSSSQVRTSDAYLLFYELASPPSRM
Put plainly: co-IP; NIH 3T3 cells co-transfected with HA-ubiquitin and a bicistronic construct (FLAG-USP2b/MYC-BMAL1, or FLAG-GFP/MYC-BMAL1 as control); IP with FLAG, MYC or HA antibodies; western blot for MYC, FLAG and HA. For orientation: In western blotting, separated proteins are transferred to a membrane and probed.

Assay [4] has as its target T3, CRY1 (mouse (endogenous in SCN)) (UniProt P97784).
T3 sequence: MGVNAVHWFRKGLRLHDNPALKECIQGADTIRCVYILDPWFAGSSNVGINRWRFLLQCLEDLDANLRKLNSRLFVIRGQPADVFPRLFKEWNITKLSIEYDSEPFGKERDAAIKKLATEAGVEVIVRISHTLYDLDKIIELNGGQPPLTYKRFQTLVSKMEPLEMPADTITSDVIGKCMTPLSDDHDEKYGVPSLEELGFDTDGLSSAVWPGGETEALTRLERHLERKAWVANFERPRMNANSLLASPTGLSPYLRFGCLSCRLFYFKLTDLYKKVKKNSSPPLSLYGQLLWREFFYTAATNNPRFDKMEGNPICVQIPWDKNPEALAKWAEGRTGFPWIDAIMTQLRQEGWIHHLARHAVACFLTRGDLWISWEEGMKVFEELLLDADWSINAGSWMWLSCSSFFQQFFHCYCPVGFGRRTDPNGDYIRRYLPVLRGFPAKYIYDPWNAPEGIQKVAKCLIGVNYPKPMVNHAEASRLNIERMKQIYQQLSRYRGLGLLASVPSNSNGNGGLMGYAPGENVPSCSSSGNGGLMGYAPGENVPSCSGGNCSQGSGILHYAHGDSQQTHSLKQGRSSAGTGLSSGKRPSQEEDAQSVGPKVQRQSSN
Put plainly: co-IP; endogenous proteins of micro-dissected, pooled SCN extracts (N = 15) of WT C57BL/6 mice at ZT12; protein A beads conjugated with rabbit antibodies against BMAL1, USP2, ubiquitin, PER1, CRY1, CK1ε or EGFR; lysis buffer 75 mM Hepes pH 7.4, 150 mM KCl, 0.05% NP-40; overnight at 4°C; western blot with other antibodies.

In assay [5] the target is CK1ε (mouse (endogenous in SCN)) (UniProt Q9JMK2). The assay is described as above.
The next assay has as its target MYC-BMAL1 (mouse) (UniProt Q9WTL8). Put plainly: co-IP; NIH 3T3 cells co-transfected with HA-ubiquitin and a bicistronic construct (FLAG-USP2b/MYC-BMAL1, or FLAG-GFP/MYC-BMAL1 as control); IP with FLAG, MYC or HA antibodies; western blot for MYC, FLAG and HA.

Turning to BMAL1 (from UniProt Q9WTL8 1-632), the binding result in assay [1] and in assay [2] was “binds” in each case.
As for “CK1ε (from UniProt Q9JMK2 1-416) (enzyme)”, the binding entry in assay [2] and in assay [3] was “binds” each time.
Turning to MYC-BMAL1 (from UniProt Q9WTL8 1-632), the binding entry with FLAG-USP2b (mouse) is “binds”.

B1: USP2b (Ubiquitin Specific Protease 2, 45-kDa isoform) (enzyme, UniProt O88623-2 1-396)
chain: MRTSYTVTLPEEPPAAHFPALAKELRPRSPLSPSLLLSTFVGLLLNKAKNSKSAQGLAGLRNLGNTCFMNSILQCLSNTRELRDYCLQRLYMRDLGHTSSAHTALMEEFAKLIQTIWTSSPNDVVSPSEFKTQIQRYAPRFMGYNQQDAQEFLRFLLDGLHNEVNRVAARPKASPETLDHLPDEEKGRQMWRKYLEREDSRIGDLFVGQLKSSLTCTDCGYCSTVFDPFWDLSLPIAKRGYPEVTLMDCMRLFTKEDILDGDEKPTCCRCRARKRCIKKFSVQRFPKILVLHLKRFSESRIRTSKLTTFVNFPLRDLDLREFASENTNHAVYNLYAVSNHSGTTMGGHYTAYCRSPVTGEWHTFNDSSVTPMSSSQVRTSDAYLLFYELASPPSRM
Turning to B1, the binding entry in assay [1] is reported as “binds”; in assay [4], “binds weakly”; in assay [5], “binds weakly”; in assay [3], “binds”.

B2: FLAG-USP2b (enzyme, UniProt O88623-2 1-396)
chain: MRTSYTVTLPEEPPAAHFPALAKELRPRSPLSPSLLLSTFVGLLLNKAKNSKSAQGLAGLRNLGNTCFMNSILQCLSNTRELRDYCLQRLYMRDLGHTSSAHTALMEEFAKLIQTIWTSSPNDVVSPSEFKTQIQRYAPRFMGYNQQDAQEFLRFLLDGLHNEVNRVAARPKASPETLDHLPDEEKGRQMWRKYLEREDSRIGDLFVGQLKSSLTCTDCGYCSTVFDPFWDLSLPIAKRGYPEVTLMDCMRLFTKEDILDGDEKPTCCRCRARKRCIKKFSVQRFPKILVLHLKRFSESRIRTSKLTTFVNFPLRDLDLREFASENTNHAVYNLYAVSNHSGTTMGGHYTAYCRSPVTGEWHTFNDSSVTPMSSSQVRTSDAYLLFYELASPPSRM
Take B2: the binding result with MYC-BMAL1 (mouse) is “binds”.

B3: CRY1 (protein, UniProt P97784 1-606)
chain: MGVNAVHWFRKGLRLHDNPALKECIQGADTIRCVYILDPWFAGSSNVGINRWRFLLQCLEDLDANLRKLNSRLFVIRGQPADVFPRLFKEWNITKLSIEYDSEPFGKERDAAIKKLATEAGVEVIVRISHTLYDLDKIIELNGGQPPLTYKRFQTLVSKMEPLEMPADTITSDVIGKCMTPLSDDHDEKYGVPSLEELGFDTDGLSSAVWPGGETEALTRLERHLERKAWVANFERPRMNANSLLASPTGLSPYLRFGCLSCRLFYFKLTDLYKKVKKNSSPPLSLYGQLLWREFFYTAATNNPRFDKMEGNPICVQIPWDKNPEALAKWAEGRTGFPWIDAIMTQLRQEGWIHHLARHAVACFLTRGDLWISWEEGMKVFEELLLDADWSINAGSWMWLSCSSFFQQFFHCYCPVGFGRRTDPNGDYIRRYLPVLRGFPAKYIYDPWNAPEGIQKVAKCLIGVNYPKPMVNHAEASRLNIERMKQIYQQLSRYRGLGLLASVPSNSNGNGGLMGYAPGENVPSCSSSGNGGLMGYAPGENVPSCSGGNCSQGSGILHYAHGDSQQTHSLKQGRSSAGTGLSSGKRPSQEEDAQSVGPKVQRQSSN
As for B3, in assay [2], the binding result is listed as “binds”.
